These results are taken from PubChem BioAssay AID445 (National Center for Advancing Translational Sciences (NCATS), 2006).

A word on the AC50: it is the midpoint of the concentration-response curve, whichever way the signal moves.

Each structure is given as a SMILES string. Some of the results follow. These are further read-outs of the screen, such as a control signal, another cell line or another target. No call is given for them. Most of these compounds were active or inconclusive in the main read-out, so they are no random draw. The note in brackets gives the kind of curve behind each potency; many fits are weak.

This assay in a line: IkB Signaling. To be noted: ABC-DLBCL IkBa-CBG/CBR dual luciferase ratio (green luciferase fused to IkBa over red control in OCI-Ly3 lymphoma cells), 4 h. In outline: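 Curves were fitted separately to fusion (green), unfused (red) and ratio luminescence, then classed by r2, magnitude and activity. Cells: OCI-Ly3, 4 h compound plus doxycycline at 37C; 10 uM MG-132 defined full response.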
Setting [1] is: measured here: control luc red channel unless noted.

Regarding `CCOC(=O)c1cc(-c2ccccc2)n(CC(=O)Nc2cc(Cl)c(OC)cc2OC)c1C`, the concentration at half-maximal activity (AC50) under setting [1] was 1 µM [rising, full curve].

Take `Cc1nn(C(C)C(=O)Nc2cccc(F)c2)c(=O)c2c1sc1ccccc12` (centres undefined): the AC50 under setting [1] was 10 µM [falling, partial curve].

`Cc1ccc(Nc2c(-c3ccc(N4CCOCC4)cc3)nc3ncccn23)c(C)c1`: the AC50 under setting [1] is 31.6 µM [falling, single point].

Turning to `CC(C)C(c1nnnn1Cc1ccccc1)N1CCN(Cc2ccc3c(c2)OCO3)CC1` (centres undefined), under setting [1], the AC50 was 6.31 µM [falling, single point].

`Cc1sc2ncn3ncnc3c2c1C`: the concentration at half-maximal activity (AC50) under setting [1] is 12.6 µM [falling, partial curve].

As for `CC(C)COc1ccc(C(=O)Nc2onc3c2CCCC3)cc1`, the AC50 under setting [1] is 5.01 µM [rising, partial curve, poor fit].

On to `CCc1ccc(N2CC(c3nc4ccccc4n3Cc3ccccc3C)CC2=O)cc1` (centres undefined), for which the AC50 under setting [1] is 10 µM [falling, partial curve].

For the molecule `CCOc1ccc(C(=O)NCCc2sc(-c3cccc(F)c3)nc2C)cc1OCC`, the AC50 under setting [1] was 20 µM [falling, single point].

Consider `CCOC(=O)c1cnc2ccc(OC(F)(F)F)cc2c1Nc1ccccc1C(=O)O`, for which, under setting [1], the AC50 is 20 µM [falling, single point].

For the molecule `Cc1ccc(NC(=O)CCCN2C(=O)COc3ccc(C)cc32)c(Cl)c1`, under setting [1], the AC50 was 10 µM [falling, single point].

Regarding `c1ccc(N2CCN(c3ncnc4c3oc3ccccc34)CC2)cc1`, the AC50 under setting [1] is 3.98 µM [falling, full curve].

Consider `CCC(C)NC(=O)c1c(N)n(/N=C/c2cccnc2)c2nc3ccccc3nc12` (centres undefined), for which the concentration at half-maximal activity (AC50) under setting [1] was 1 µM [falling, full curve].

For the molecule `COc1ccc(-c2cnc(C)o2)cc1S(=O)(=O)Nc1cccc(C(F)(F)F)c1`, under setting [1], the AC50 was 31.6 µM [falling, partial curve].

Consider `O=C(Nc1cccc(C(F)(F)F)c1)C1CCN(S(=O)(=O)c2cccc3nsnc23)CC1`, for which the concentration at half-maximal activity (AC50) under setting [1] is 5.01 µM [falling, full curve, poor fit].

`COc1ccc(C(=O)CC2(O)C(=O)N(CCc3ccccc3)c3ccc(Br)cc32)cc1OC` (centres undefined): the concentration at half-maximal activity (AC50) under setting [1] was 20 µM [falling, partial curve].

As for `O=C(Cn1nc2c(cc1=O)CCCC2)NCc1ccccc1`, the AC50 under setting [1] is 3.16 µM [rising, single point].

For the molecule `O=c1cc(CSc2nnnn2-c2ccccc2)nc2scc(-c3ccccc3)n12`, under setting [1], the AC50 is 20 µM [falling, partial curve].

As to `COc1cccc(-n2c(=O)c3c4c(sc3n(Cc3ccccc3C#N)c2=O)CCCC4)c1`, the AC50 under setting [1] is 3.98 µM [rising, single point].

As for `CCOC(=O)/C(C#N)=C1/C=Nc2ccccc2N1`, the AC50 under setting [1] was 3.98 µM [falling, full curve].

For the molecule `O=S(=O)(c1ccc2nc(Nc3ccc(Br)cc3F)ccc2c1)N1CCCC1`, the AC50 under setting [1] is 0.126 µM [rising, full curve, poor fit].

Consider `c1c2c(cc3sc(N4CCOCC4)nc13)OCCO2`, for which the AC50 was 0.158 µM [rising, full curve, poor fit] (measured here: IkB-luc green channel) and 3.16 µM [falling, full curve, poor fit] (measured here: control luc red channel).

Consider `CN(C(=O)CSc1nc2ccc(NC(=O)c3ccccc3)cc2s1)c1ccccc1`, for which, under setting [1], the AC50 was 12.6 µM [falling, partial curve].

Take `CCOC(=O)c1[nH]c2ccc(F)cc2c1NC(=O)C(C)N1CCc2cc(OC)c(OC)cc2C1` (centres undefined): under setting [1], the half-maximal activity concentration (AC50) was 12.6 µM [falling, partial curve].

Turning to `Cc1ccc(-n2nc(C)c3c(C(=O)Nc4ccc(C)cc4Cl)cc(C)nc32)cc1`, the AC50 under setting [1] is 10 µM [falling, partial curve].

Consider `COc1cc(CN(C(=O)c2ccc(C)cc2)c2ccccn2)cc(OC)c1OC`, for which, under setting [1], the AC50 is 31.6 µM [falling, single point].

As to `CCOC(=O)CSc1nc(-c2ccc(OC)cc2)cc(C(F)(F)F)c1C#N`, the AC50 under setting [1] was 6.31 µM [rising, partial curve].

In the case of `CC(C)(C)C1CCc2c(sc(NC(=O)Cn3nnc(-c4cccc(C(F)(F)F)c4)n3)c2C#N)C1` (centres undefined), the AC50 under setting [1] is 7.94 µM [falling, partial curve].

In the case of `Cn1c(CNC(=O)CSc2n[nH]c(-c3ccccc3)n2)nc2ccccc21`, under setting [1], the AC50 is 39.8 µM [falling, single point].

As to `Fc1ccc(Nc2nc3nonc3nc2Nc2cccc(C(F)(F)F)c2)cc1`, under setting [1], the concentration at half-maximal activity (AC50) is 0.501 µM [falling, full curve].

In the case of `O=C(Cn1c(=O)n(-c2ccc(Cl)cc2)c(=O)c2c3c(sc21)CCC3)c1ccc(F)cc1`, the AC50 under setting [1] is 12.6 µM [falling, partial curve].

In the case of `COc1ccccc1Cn1c(CNS(=O)(=O)c2ccc3c(c2)CCCC3)nc2cccnc21`, the AC50 under setting [1] is 39.8 µM [falling, single point].

As for `COc1ccccc1N1CCN(C(=O)CSc2nc3ccccc3nc2Cc2ccc(F)cc2)CC1`, the AC50 under setting [1] was 20 µM [falling, partial curve].

In the case of `Cc1csc2nc(COc3ccc(NC(=O)COc4ccccc4F)cc3)cc(=O)n12`, the concentration at half-maximal activity (AC50) under setting [1] is 3.98 µM [rising, partial curve].

For the molecule `CCC(=O)N1c2ccccc2CC1C(=O)NCCN1CCN(c2cccc(C)c2C)CC1` (centres undefined), the AC50 under setting [1] was 39.8 µM [falling, partial curve, poor fit].

For the molecule `O=C(Nc1ccc(N2CCCCC2)cc1)c1cccnc1`, under setting [1], the AC50 was 31.6 µM [falling, single point].

For `Cc1ccc(-c2nc3ccccc3o2)cc1NC(=O)c1cccc2c(Cl)cccc12`, under setting [1], the AC50 was 3.98 µM [rising, full curve, poor fit].

For the molecule `Cc1nc2sccn2c(=O)c1S(=O)(=O)Nc1ccc(N2CCN(S(C)(=O)=O)CC2)cc1`, the AC50 under setting [1] is 1 µM [falling, full curve].

As to `O=C(CSc1nc(-c2ccccc2)[nH]c1-c1ccccc1)Nc1ccc2c(c1)OCO2`, under setting [1], the AC50 is 20 µM [falling, partial curve].

Take `Cc1ccccc1NCc1cccn1-c1nnc(N2CCOCC2)s1`: under setting [1], the AC50 is 7.94 µM [rising, single point].

As to `O=[N+]([O-])c1cc(-c2nc(-c3ccccc3)no2)ccc1N1CCCC1`, the AC50 under setting [1] is 39.8 µM [falling, single point].

`COc1cc(CNC(=O)CSCc2nc3cccnc3n2C2CCCCC2)cc(OC)c1OC`: the AC50 under setting [1] is 1.26 µM [rising, full curve].

Take `Cc1ccc(C)c(NC(=O)CCc2nc(-c3ccc(C(C)(C)C)cc3)no2)c1`: under setting [1], the AC50 was 12.6 µM [falling, partial curve].

`CCOc1cc(C#N)c(NC(=O)c2cccc(S(=O)(=O)N3CCOCC3)c2)cc1OCC`: the AC50 under setting [1] was 20 µM [falling, partial curve, poor fit].

Consider `COc1cccc(NC(=O)CN(C)S(=O)(=O)c2cccs2)c1`, for which the AC50 under setting [1] is 39.8 µM [falling, single point].

As for `CC1CCN(C(=O)CSc2nc(-c3ccc(C(C)C)cc3)no2)CC1`, the AC50 under setting [1] was 39.8 µM [falling, single point].

For `CCC1CCCCN1CCCNC(=O)c1ccc2c(c1)N(Cc1ccccc1F)C(=O)c1ccccc1S2(=O)=O` (centres undefined), the AC50 under setting [1] is 25.1 µM [rising, single point].

As to `COc1ccc2nc3oc(C(=O)N4CCCCC4)cc3cc2c1`, the AC50 under setting [1] was 12.6 µM [falling, partial curve].

For `Cc1ccc(C(=O)Nc2ccc3c(c2)N(C)C(=O)c2ccccc2S3)cc1`, the AC50 under setting [1] is 2 µM [falling, partial curve].

For `CCc1ccc(NC(=O)c2cc(S(=O)(=O)N3CCCC3)ccc2F)cc1`, the concentration at half-maximal activity (AC50) under setting [1] is 12.6 µM [falling, partial curve].

As for `Cc1cccc(-n2ncc(C(=O)N3CCc4ccccc4C3)c2C2CCN(C(=O)OC(C)(C)C)CC2)c1`, the AC50 under setting [1] was 15.8 µM [falling, partial curve].

Regarding `Cc1oc2ccc(O)c(CN3CCCCCC3)c2c1C(=O)Nc1cccc(Cl)c1C`, the AC50 under setting [1] is 31.6 µM [falling, single point].

For the molecule `Cc1c(-c2nsc(NC(=O)c3cccs3)n2)nnn1-c1ccc(Cl)cc1`, the AC50 under setting [1] was 31.6 µM [rising, partial curve].

As to `Cc1nn2c(=O)cc(COC(=O)c3cccc(NC(=O)COc4ccc(C)c(C)c4)c3)nc2s1`, under setting [1], the AC50 was 10 µM [falling, partial curve].

In the case of `c1csc(-c2nn3c(C4COc5ccccc5O4)nnc3s2)c1` (centres undefined), the AC50 under setting [1] is 15.8 µM [falling, partial curve].

As for `CCSc1ncc(Cl)c(C(=O)N(Cc2ccccc2Cl)C2CCS(=O)(=O)C2)n1` (centres undefined), the AC50 under setting [1] is 39.8 µM [falling, single point].

In the case of `O=C(c1cccc(COc2ccc(Cl)cc2Cl)c1)N1CCN(c2ccccn2)CC1`, the AC50 under setting [1] was 10 µM [falling, partial curve].

As to `CCN(CC)CCCNC(=O)c1ccc2c(c1)N(Cc1c(F)cccc1Cl)C(=O)c1ccccc1S2`, the concentration at half-maximal activity (AC50) under setting [1] was 5.01 µM [falling, partial curve].

As for `O=C(NCCc1ccc(Cl)cc1)C(=O)NCC(c1ccco1)S(=O)(=O)c1cccs1` (centres undefined), under setting [1], the AC50 was 6.31 µM [falling, single point].

Turning to `COc1ccc(-c2nc(-c3ccncc3)no2)cc1OC`, the concentration at half-maximal activity (AC50) under setting [1] is 12.6 µM [falling, partial curve].

As to `Cc1ccc(OCCSc2nc3ccc(NC(=O)c4ccc5c(c4)OCO5)cc3s2)cc1`, the half-maximal activity concentration (AC50) under setting [1] was 39.8 µM [falling, single point].

As for `CCn1c(=O)c(C2=NS(=O)(=O)c3ccccc3N2)c(O)c2ccccc21`, the concentration at half-maximal activity (AC50) under setting [1] is 0.158 µM [falling, full curve].

On to `O=C(Nc1ccc(F)cc1)C1CCN(c2nc3ccccc3n3cccc23)CC1`, for which the AC50 under setting [1] was 15.8 µM [falling, partial curve].

For the molecule `CCCc1ccc(OC(=O)CSc2nnc(-c3cccs3)o2)cc1`, under setting [1], the AC50 is 3.16 µM [falling, single point].
